PubChem BioAssay AID1224828 | NIAID | 2016

Test: 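Find genes required for NF-kappaB p65 moving into the nucleus after LPS in mouse macrophages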 (primary screen)
Cell system: mouse RAW264.7 G9 macrophage reporter cells (GFP-p65, Tnf promoter-mCherry)
Reagents: siRNA pool against mouse genes, 100 nM
Duration: 2 days siRNA transfection, then 40 min LPS before fixation
Conditions: LPS (Salmonella minnesota R595) at 10 ng/ml
Measurement: 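Imaged p65 nuclear translocation ratio, normalised to the plate median, converted to robust z-scores and averaged across two replicates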
Direction: p65 translocation robust z-score: higher = more nuclear NF-kappaB p65 after LPS than the plate median; nuclear/cytoplasmic p65 ratio: higher = more nuclear NF-kappaB p65
Call rule: 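Active if robust z is above 3.3 (negative regulators) or below -1.56, the Tlr4 control median (positive regulators); activity score 50 or more; control wells not called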
Meaning of the calls: active = hit (p65 shift raised or lowered); inactive = no clear change
The whole screen tested about 17,000 reagents; this is a random part of them. In the full data, 762 (4.5%) were called active. 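Active calls include both raised and lowered p65 entry, mostly lowered; wells with fewer than 50 cells lack a z-score.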 Raw values vary from plate to plate and are shown uncorrected. Unmarked entries are inactive.

With Sh2d2a (GeneID 27371), how do the results read?
p65 translocation robust z-score: -1.85 (active); nuclear/cytoplasmic p65 ratio, rep 1: 1.3; nuclear/cytoplasmic p65 ratio, rep 2: 1.28; low cell count flag: enough cells to score

How did the screen score Vav2 (GeneID 22325)?
p65 translocation robust z-score: 0.09; nuclear/cytoplasmic p65 ratio, rep 1: 1.55; nuclear/cytoplasmic p65 ratio, rep 2: 1.64; low cell count flag: enough cells to score

How did the screen score Sccpdh (GeneID 109232)?
p65 translocation robust z-score: -1.19; nuclear/cytoplasmic p65 ratio, rep 1: 1.28; nuclear/cytoplasmic p65 ratio, rep 2: 1.35; low cell count flag: enough cells to score

With Inpp5k (GeneID 19062), what was measured?
nuclear/cytoplasmic p65 ratio, rep 1: 1.55; nuclear/cytoplasmic p65 ratio, rep 2: 1.19; low cell count flag: fewer than 50 cells per well; well left out of scoring

For Dlg3 (GeneID 53310), what does the deposit list?
p65 translocation robust z-score: -0.68; nuclear/cytoplasmic p65 ratio, rep 1: 1.68; nuclear/cytoplasmic p65 ratio, rep 2: 1.3; low cell count flag: enough cells to score

For Rps17 (GeneID 20068), how do the results read?
nuclear/cytoplasmic p65 ratio, rep 1: 1.77; nuclear/cytoplasmic p65 ratio, rep 2: 1.18; low cell count flag: fewer than 50 cells per well; well left out of scoring

With Cdh5 (GeneID 12562), what was measured?
p65 translocation robust z-score: 1.37; nuclear/cytoplasmic p65 ratio, rep 1: 1.68; nuclear/cytoplasmic p65 ratio, rep 2: 1.53; low cell count flag: enough cells to score

How did the screen score Bzw2 (GeneID 66912)?
p65 translocation robust z-score: 3.7 (active); nuclear/cytoplasmic p65 ratio, rep 1: 1.98; nuclear/cytoplasmic p65 ratio, rep 2: 1.99; low cell count flag: enough cells to score

How did the screen score Or5b96 (GeneID 258699)?
p65 translocation robust z-score: -0.76; nuclear/cytoplasmic p65 ratio, rep 1: 1.45; nuclear/cytoplasmic p65 ratio, rep 2: 1.36; low cell count flag: enough cells to score

What did the screen give for Csnk1e (GeneID 27373)?
p65 translocation robust z-score: -1.84 (active); nuclear/cytoplasmic p65 ratio, rep 1: 1.4; nuclear/cytoplasmic p65 ratio, rep 2: 1.25; low cell count flag: enough cells to score

For Tmem62 (GeneID 96957), how do the results read?
p65 translocation robust z-score: 0.46; nuclear/cytoplasmic p65 ratio, rep 1: 1.61; nuclear/cytoplasmic p65 ratio, rep 2: 1.96; low cell count flag: enough cells to score

Which result is listed for Mug2 (GeneID 17837)?
p65 translocation robust z-score: -0.06; nuclear/cytoplasmic p65 ratio, rep 1: 1.8; nuclear/cytoplasmic p65 ratio, rep 2: 1.56; low cell count flag: enough cells to score

For Or2at4 (GeneID 259066), what does the deposit list?
nuclear/cytoplasmic p65 ratio, rep 1: 1.36; nuclear/cytoplasmic p65 ratio, rep 2: 1.17; low cell count flag: fewer than 50 cells per well; well left out of scoring

What did the screen give for Fgf10 (GeneID 14165)?
p65 translocation robust z-score: 0.34; nuclear/cytoplasmic p65 ratio, rep 1: 1.46; nuclear/cytoplasmic p65 ratio, rep 2: 1.44; low cell count flag: enough cells to score

With Cbfa2t3 (GeneID 12398), what was measured?
p65 translocation robust z-score: 1.05; nuclear/cytoplasmic p65 ratio, rep 1: 1.71; nuclear/cytoplasmic p65 ratio, rep 2: 1.42; low cell count flag: enough cells to score

With Ninj2 (GeneID 29862), what does the deposit list?
p65 translocation robust z-score: 1.04; nuclear/cytoplasmic p65 ratio, rep 1: 1.84; nuclear/cytoplasmic p65 ratio, rep 2: 1.71; low cell count flag: enough cells to score

Active calls, among the entries above:
Sh2d2a (GeneID 27371) → p65 translocation robust z-score: -1.85 (active); nuclear/cytoplasmic p65 ratio, rep 1: 1.3; nuclear/cytoplasmic p65 ratio, rep 2: 1.28; low cell count flag: enough cells to score
Bzw2 (GeneID 66912) → p65 translocation robust z-score: 3.7 (active); nuclear/cytoplasmic p65 ratio, rep 1: 1.98; nuclear/cytoplasmic p65 ratio, rep 2: 1.99; low cell count flag: enough cells to score
Csnk1e (GeneID 27373) → p65 translocation robust z-score: -1.84 (active); nuclear/cytoplasmic p65 ratio, rep 1: 1.4; nuclear/cytoplasmic p65 ratio, rep 2: 1.25; low cell count flag: enough cells to score

Additional reagents follow:
Which result is listed for Or5aq1 (GeneID 258765)?
p65 translocation robust z-score: -2.52 (active); nuclear/cytoplasmic p65 ratio, rep 1: 1.2; nuclear/cytoplasmic p65 ratio, rep 2: 1.27; low cell count flag: enough cells to score

What did the screen give for Vgll2 (GeneID 215031)?
p65 translocation robust z-score: -0.86; nuclear/cytoplasmic p65 ratio, rep 1: 1.24; nuclear/cytoplasmic p65 ratio, rep 2: 1.16; low cell count flag: enough cells to score

What is on record for Prm2 (GeneID 19119)?
p65 translocation robust z-score: 0.24; nuclear/cytoplasmic p65 ratio, rep 1: 1.41; nuclear/cytoplasmic p65 ratio, rep 2: 1.24; low cell count flag: enough cells to score

What did the screen give for Ssh1 (GeneID 231637)?
nuclear/cytoplasmic p65 ratio, rep 1: 1.28; nuclear/cytoplasmic p65 ratio, rep 2: 1.28; low cell count flag: fewer than 50 cells per well; well left out of scoring

What did the screen give for Lbx2 (GeneID 16815)?
p65 translocation robust z-score: -0.13; nuclear/cytoplasmic p65 ratio, rep 1: 1.61; nuclear/cytoplasmic p65 ratio, rep 2: 1.35; low cell count flag: enough cells to score

How did the screen score 4921536K21Rik (GeneID 67430)?
nuclear/cytoplasmic p65 ratio, rep 1: 1.47; nuclear/cytoplasmic p65 ratio, rep 2: 1.3; low cell count flag: fewer than 50 cells per well; well left out of scoring

For Trav3-3 (GeneID 320898), what does the deposit list?
p65 translocation robust z-score: 1.9; nuclear/cytoplasmic p65 ratio, rep 1: 1.17; nuclear/cytoplasmic p65 ratio, rep 2: 1.79; low cell count flag: enough cells to score

For Ormdl1 (GeneID 227102), what does the deposit list?
p65 translocation robust z-score: -0.24; nuclear/cytoplasmic p65 ratio, rep 1: 1.51; nuclear/cytoplasmic p65 ratio, rep 2: 1.79; low cell count flag: enough cells to score

How did the screen score C5ar2 (GeneID 319430)?
p65 translocation robust z-score: -1.33; nuclear/cytoplasmic p65 ratio, rep 1: 1.3; nuclear/cytoplasmic p65 ratio, rep 2: 1.4; low cell count flag: enough cells to score

With Zyx (GeneID 22793), what was measured?
p65 translocation robust z-score: 1.65; nuclear/cytoplasmic p65 ratio, rep 1: 1.79; nuclear/cytoplasmic p65 ratio, rep 2: 1.81; low cell count flag: enough cells to score

What is on record for Mat2a (GeneID 232087)?
p65 translocation robust z-score: 1.55; nuclear/cytoplasmic p65 ratio, rep 1: 1.91; nuclear/cytoplasmic p65 ratio, rep 2: 1.82; low cell count flag: enough cells to score
